The text below walks through data of article PMC3870252, “The N-Terminal Membrane-Spanning Domain of the Escherichia coli DNA Translocase FtsK Hexamerizes at Midcell” (mBio, 2013).

These are yes or no findings as the source states them, for the method shown. Tags and fused reporters may be left off the sequences shown.

The test addresses FtsK-YPet (wild-type E. coli FtsK with a C-terminal YPet fusion) (E. coli) (UniProt P46889). Briefly: condition: only molecules outside the cell center (before recruitment to midcell); quantitative live-cell fluorescence stoichiometry (widefield microscopy); live E. coli; intensities of FtsK-YPet spots outside the cell center in unbleached images.

B1: FtsK-YPet (wild-type E. coli FtsK with a C-terminal YPet fusion) (natural protein, UniProt P46889 1-1329, looked up)
chain: MSQEYIEDKEVTLTKLSSGRRLLEALLILIVLFAVWLMAALLSFNPSDPSWSQTAWHEPIHNLGGMPGAWLADTLFFIFGVMAYTIPVIIVGGCWFAWRHQSSDEYIDYFAVSLRIIGVLALILTSCGLAAINADDIWYFASGGVIGSLLSTTLQPLLHSSGGTIALLCVWAAGLTLFTGWSWVTIAEKLGGWILNILTFASNRTRRDDTWVDEDEYEDDEEYEDENHGKQHESRRARILRGALARRKRLAEKFINPMGRQTDAALFSGKRMDDDEEITYTARGVAADPDDVLFSGNRATQPEYDEYDPLLNGAPITEPVAVAAAATTATQSWAAPVEPVTQTPPVASVDVPPAQPTVAWQPVPGPQTGEPVIAPAPEGYPQQSQYAQPAVQYNEPLQQPVQPQQPYYAPAAEQPAQQPYYAPAPEQPVAGNAWQAEEQQSTFAPQSTYQTEQTYQQPAAQEPLYQQPQPVEQQPVVEPEPVVEETKPARPPLYYFEEVEEKRAREREQLAAWYQPIPEPVKEPEPIKSSLKAPSVAAVPPVEAAAAVSPLASGVKKATLATGAAATVAAPVFSLANSGGPRPQVKEGIGPQLPRPKRIRVPTRRELASYGIKLPSQRAAEEKAREAQRNQYDSGDQYNDDEIDAMQQDELARQFAQTQQQRYGEQYQHDVPVNAEDADAAAEAELARQFAQTQQQRYSGEQPAGANPFSLDDFEFSPMKALLDDGPHEPLFTPIVEPVQQPQQPVAPQQQYQQPQQPVPPQPQYQQPQQPVAPQPQYQQPQQPVAPQQQYQQPQQPVAPQQQYQQPQQPVAPQPQDTLLHPLLMRNGDSRPLHKPTTPLPSLDLLTPPPSEVEPVDTFALEQMARLVEARLADFRIKADVVNYSPGPVITRFELNLAPGVKAARISNLSRDLARSLSTVAVRVVEVIPGKPYVGLELPNKKRQTVYLREVLDNAKFRDNPSPLTVVLGKDIAGEPVVADLAKMPHLLVAGTTGSGKSVGVNAMILSMLYKAQPEDVRFIMIDPKMLELSVYEGIPHLLTEVVTDMKDAANALRWCVNEMERRYKLMSALGVRNLAGYNEKIAEADRMMRPIPDPYWKPGDSMDAQHPVLKKEPYIVVLVDEFADLMMTVGKKVEELIARLAQKARAAGIHLVLATQRPSVDVITGLIKANIPTRIAFTVSSKIDSRTILDQAGAESLLGMGDMLYSGPNSTLPVRVHGAFVRDQEVHAVVQDWKARGRPQYVDGITSDSESEGGAGGFDGAEELDPLFDQAVQFVTEKRKASISGVQRQFRIGYNRAARIIEQMEAQGIVSEQGHNGNREVLAPPPFD
notes: FtsK, DNA translocase, Escherichia coli; wild-type protein, 1,329 amino acids, integral membrane protein; also called wild-type FtsK; source: expressed from the endogenous wild-type chromosomal locus, E. coli K-12 AB1157 derivative, in live cells; not shown: YPet, C-terminal, kept
In the case of B1, the binding entry is “no binding”.
